Measured values published in PubChem BioAssay AID540256 (National Center for Advancing Translational Sciences (NCATS), 2011).
Screen size: about 300,000 compounds; about 3,700 (1.2%) were called active. Inconclusive means that the source gave no clear call. Such entries were picked first, then a sample of the others. Calls come from the whole dose curve; tested in HEK293 cells. Potencies of inconclusive entries are doubtful fits and often do not repeat.

Assay: qHTS for Inhibitors of binding or entry into cells for Lassa Virus; note: nearly all actives have a fitted effect of over 50% in size
Conditions: Lassa virus pseudotype entry inhibition, cell reporter; activity change, negative = inhibition: at 37.9 µM (top of the series) unless noted
% is set by controls: 0 for no effect and ±100 for the full control effect; potency is the fitted concentration of half-maximal effect.

Compound | activity change, negative = inhibition | Potency
COc1cccc(C2C(C(=O)Nc3ccc(C)cc3C)=C(C)Nc3c(C(=O)Nc4cccc(C)c4)cnn32)c1OC (stereo not given) | inactive: -17.7% [at 46.1 µM] | –
c1csc(-c2noc(COc3ccc4c(c3)CCCC4)n2)c1 | – | inconclusive: 0.0291 µM [activator, full curve, poor fit]
Clc1ccc(CNc2ccc(N3CCN(Cc4ccccc4)CC3)cc2)cc1 | – | inconclusive: 35.5 µM [inhibitor, single point]
CCOC(=O)CN1C(=O)S/C(=C/c2cc(C)n(C)c2C)C1=O | – | inconclusive: 1.46 µM [activator, partial curve, poor fit]
c1ccc2[nH]c(-c3ccncc3)nc2c1 | inactive: 1.11% | –
COc1ccc(C(=O)OC(C(=O)c2ccc(C)cc2)c2ccccc2)cc1 (stereo not given) | inactive: -20.8% | –
COc1cc(C(=O)Nc2ccc3nc(SCc4ccccc4)sc3c2)cc(OC)c1OC | – | inconclusive: 3.98 µM [activator, full curve, poor fit]
O=C(CCl)N(c1ccccc1)c1c[nH]c2ccccc12 | – | inconclusive: 14.1 µM [inhibitor, single point]
Cn1ncc(N2CCN(C(=O)c3ccc(Cl)cc3)CC2)c(Cl)c1=O | inactive: 1.41% [at 46.1 µM] | –
COc1ccccc1/C=C/c1nc(C#N)c(N(C)C)o1 | – | inconclusive: 35.5 µM [activator, partial curve, poor fit]
CCc1ccc(CNC(=O)c2ccc(-c3nc(CS(=O)(=O)c4ccccc4)c(C)o3)cc2)cc1 | inactive: 0.856% [at 46.1 µM] | –
CCN1CCN(CCCOc2ccc(Cl)cc2Br)CC1 | – | inconclusive: 29.1 µM [inhibitor, single point]
CC(=O)CSc1nc(N)c(C#N)c(-c2cccs2)c1C#N | – | inconclusive: 32.6 µM [inhibitor, single point]
CC1CC1C(=O)Nc1nc(-c2ccccn2)cs1 (stereo not given) | inactive: -20.6% | –
CCC(=O)Nc1ccc(/C(C)=N/NC(=O)c2c(Br)c(C)nn2C)cc1 | – | inconclusive: 23.1 µM [inhibitor, partial curve, poor fit]
CC(=O)Nc1ccc(C(=O)OCC(=O)NCc2ccccc2)cc1 | – | inconclusive: 11.2 µM [inhibitor, single point]
CC1=C(c2ccc(C)c(C)c2)S(=O)(=O)N=C1N1CCC(C(=O)NCc2ccc(C)o2)CC1 | inactive: 19.5% [at 46.1 µM] | –
COC(=O)c1cc(NC(=O)c2cc(C)oc2C)cc(C(=O)OC)c1 | – | inconclusive: 32.6 µM [inhibitor, partial curve, poor fit]
CCN1CCN(CC(=O)Nc2cc(C)on2)CC1 | inactive: -2.64% [at 46.1 µM] | –
O=C(/C=C/c1ccc(Cl)cc1)Nc1cc(S(=O)(=O)N2CCOCC2)ccc1N1CCOCC1 | – | active: 4.47 µM

One compound at a time (already shown). Order of values: activity change, negative = inhibition	Potency
`Clc1ccc(CNc2ccc(N3CCN(Cc4ccccc4)CC3)cc2)cc1` reads –	inconclusive: 35.5 µM [inhibitor, single point]
`CC(=O)Nc1ccc(C(=O)OCC(=O)NCc2ccccc2)cc1` reads –	inconclusive: 11.2 µM [inhibitor, single point]
